Data taken from the supplement of paper PMC10849652.
The other results are listed elsewhere or left out.

Sequences of proteins named here, by UniProt entry; tags and fusion partners are left off. A change or cut given only in a name is not applied to a line headed by its entry.
UniProt Q9NYR9: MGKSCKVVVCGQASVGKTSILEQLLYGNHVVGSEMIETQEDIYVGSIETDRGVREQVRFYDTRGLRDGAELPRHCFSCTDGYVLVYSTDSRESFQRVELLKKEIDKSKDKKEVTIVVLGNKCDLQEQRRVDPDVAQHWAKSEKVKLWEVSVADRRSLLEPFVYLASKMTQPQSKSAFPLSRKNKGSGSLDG
UniProt Q9NPE2: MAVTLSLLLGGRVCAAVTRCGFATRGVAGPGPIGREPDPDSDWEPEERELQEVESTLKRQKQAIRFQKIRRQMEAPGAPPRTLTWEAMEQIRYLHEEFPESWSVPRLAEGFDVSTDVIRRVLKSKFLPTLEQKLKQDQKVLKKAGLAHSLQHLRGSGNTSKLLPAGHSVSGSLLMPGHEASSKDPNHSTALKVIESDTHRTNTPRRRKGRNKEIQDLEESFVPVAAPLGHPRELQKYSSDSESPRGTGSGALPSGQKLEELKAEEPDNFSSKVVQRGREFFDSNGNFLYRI
UniProt P56556, whole entry, looked up: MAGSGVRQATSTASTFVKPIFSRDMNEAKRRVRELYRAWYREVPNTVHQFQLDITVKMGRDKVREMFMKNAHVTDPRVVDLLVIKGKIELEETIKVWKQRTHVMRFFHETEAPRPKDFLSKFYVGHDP
UniProt Q9Y221: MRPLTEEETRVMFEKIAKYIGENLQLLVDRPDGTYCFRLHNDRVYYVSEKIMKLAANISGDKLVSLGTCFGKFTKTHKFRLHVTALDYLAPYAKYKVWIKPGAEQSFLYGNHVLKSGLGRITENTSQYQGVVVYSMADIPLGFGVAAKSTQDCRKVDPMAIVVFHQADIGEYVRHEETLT
UniProt Q9BT67: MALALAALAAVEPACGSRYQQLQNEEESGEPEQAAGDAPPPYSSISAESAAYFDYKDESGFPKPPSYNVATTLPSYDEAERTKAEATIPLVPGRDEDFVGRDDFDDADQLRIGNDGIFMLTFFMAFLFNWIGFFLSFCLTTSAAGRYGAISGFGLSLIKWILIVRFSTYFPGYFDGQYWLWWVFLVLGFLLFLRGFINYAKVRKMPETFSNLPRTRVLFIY
UniProt P51957: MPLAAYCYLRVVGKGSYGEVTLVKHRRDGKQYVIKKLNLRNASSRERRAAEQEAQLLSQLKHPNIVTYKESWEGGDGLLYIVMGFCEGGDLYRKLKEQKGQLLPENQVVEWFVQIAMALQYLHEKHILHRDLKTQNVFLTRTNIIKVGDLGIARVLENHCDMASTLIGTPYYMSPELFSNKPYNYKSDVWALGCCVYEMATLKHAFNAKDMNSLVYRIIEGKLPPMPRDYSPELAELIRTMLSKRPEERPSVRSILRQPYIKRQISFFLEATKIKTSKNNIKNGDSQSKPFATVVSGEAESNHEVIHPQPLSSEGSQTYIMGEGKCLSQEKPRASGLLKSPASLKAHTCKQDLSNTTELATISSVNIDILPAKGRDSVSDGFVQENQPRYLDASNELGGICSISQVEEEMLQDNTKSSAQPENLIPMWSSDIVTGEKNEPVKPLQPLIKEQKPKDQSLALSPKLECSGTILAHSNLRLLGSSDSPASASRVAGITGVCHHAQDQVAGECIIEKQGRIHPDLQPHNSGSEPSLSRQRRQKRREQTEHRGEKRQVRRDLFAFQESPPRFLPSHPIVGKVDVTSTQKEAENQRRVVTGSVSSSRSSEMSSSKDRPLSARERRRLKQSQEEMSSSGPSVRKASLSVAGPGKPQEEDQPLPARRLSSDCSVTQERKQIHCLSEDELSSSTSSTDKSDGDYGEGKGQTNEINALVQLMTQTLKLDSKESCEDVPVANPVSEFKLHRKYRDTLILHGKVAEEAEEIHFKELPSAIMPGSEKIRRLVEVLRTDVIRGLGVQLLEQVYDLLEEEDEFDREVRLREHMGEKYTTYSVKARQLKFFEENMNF
UniProt O75438, whole entry, looked up: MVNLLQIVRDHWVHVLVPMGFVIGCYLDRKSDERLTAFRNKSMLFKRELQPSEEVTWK
UniProt P25963: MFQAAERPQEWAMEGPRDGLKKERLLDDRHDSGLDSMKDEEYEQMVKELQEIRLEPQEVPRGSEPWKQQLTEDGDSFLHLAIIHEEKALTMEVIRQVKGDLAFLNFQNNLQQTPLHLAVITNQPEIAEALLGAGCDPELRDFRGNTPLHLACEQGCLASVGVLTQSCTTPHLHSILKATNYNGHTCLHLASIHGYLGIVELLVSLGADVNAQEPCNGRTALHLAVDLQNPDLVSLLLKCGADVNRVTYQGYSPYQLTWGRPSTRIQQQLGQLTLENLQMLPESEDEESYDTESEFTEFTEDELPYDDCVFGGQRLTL
UniProt P35240: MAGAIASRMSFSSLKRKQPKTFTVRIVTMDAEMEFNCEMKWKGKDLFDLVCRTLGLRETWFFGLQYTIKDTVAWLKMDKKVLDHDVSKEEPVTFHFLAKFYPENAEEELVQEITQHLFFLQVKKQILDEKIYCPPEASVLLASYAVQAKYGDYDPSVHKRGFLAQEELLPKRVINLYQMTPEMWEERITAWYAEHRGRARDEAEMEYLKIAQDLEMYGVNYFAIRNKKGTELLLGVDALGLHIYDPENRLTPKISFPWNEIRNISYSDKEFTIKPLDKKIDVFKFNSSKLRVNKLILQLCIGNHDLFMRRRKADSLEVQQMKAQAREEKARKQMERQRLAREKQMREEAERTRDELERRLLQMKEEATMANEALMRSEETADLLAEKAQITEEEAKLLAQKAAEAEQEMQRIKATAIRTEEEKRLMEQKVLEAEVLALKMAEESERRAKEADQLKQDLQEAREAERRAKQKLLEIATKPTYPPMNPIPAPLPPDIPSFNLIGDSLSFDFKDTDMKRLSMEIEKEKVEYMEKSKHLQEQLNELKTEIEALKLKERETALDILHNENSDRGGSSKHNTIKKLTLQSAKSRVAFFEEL
UniProt P08651, whole entry, looked up: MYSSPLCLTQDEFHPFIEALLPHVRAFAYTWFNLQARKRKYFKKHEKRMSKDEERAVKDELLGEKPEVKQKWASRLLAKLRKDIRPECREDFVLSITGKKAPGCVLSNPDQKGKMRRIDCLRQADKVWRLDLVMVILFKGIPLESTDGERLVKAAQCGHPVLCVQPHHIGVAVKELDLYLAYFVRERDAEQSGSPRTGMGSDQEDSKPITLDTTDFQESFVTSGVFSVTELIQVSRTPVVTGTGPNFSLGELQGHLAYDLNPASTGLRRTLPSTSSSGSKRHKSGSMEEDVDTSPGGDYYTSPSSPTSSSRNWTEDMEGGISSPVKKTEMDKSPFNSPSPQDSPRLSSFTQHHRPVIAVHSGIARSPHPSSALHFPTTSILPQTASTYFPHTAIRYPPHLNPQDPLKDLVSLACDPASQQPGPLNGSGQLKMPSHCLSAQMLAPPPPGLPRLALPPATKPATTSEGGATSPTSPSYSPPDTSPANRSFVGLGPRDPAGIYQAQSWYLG

Legend:
Assay in all cases: log2 fold change, soluble protein after heating vs DMSO (PISA); higher = thermal stabilisation; K562 lysate, 10 uM; active = over 0.2 and 3.5 SD of the protein, either way, in both replicates (recomputed)
[1] = compound: NCC(=O)Nc1ccc(-n2nc(C(F)(F)F)cc2-c2ccc3c(ccc4ccccc43)c2)cc1
Method in brief: (§1)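 Thermal stability, expressed as log-two fold change relative to solvent controls, is given from duplicates. Crude K562 extract in PBS pH 7.4 with 1 mM MgCl2, at 1 mg/mL protein, was treated with 10 μM compound for 30 min and heated in aliquots for 3 min across 48°C-58°C. After pooling, adjustment to 0.5% NP-40 at 4°C and centrifugation at 21,000xg for 90 min, supernatant protein was measured by TMTpro 16plex LC-MS/MS with channel sums equalised.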

[2] = compound: O=C(CCCCCCC(=O)Nc1ccccc1)NO [vorinostat]
Method in brief: as §1

[3] = compound: O=C(O)c1ccc2c(c1)nc(Nc1cccc(Cl)c1)c1ccncc12 [silmitasertib]
Method in brief: as §1

[4] = compound: O=C1NC(=O)C(c2cnc3ccccn23)=C1c1cn2c3c(cc(F)cc13)CN(C(=O)N1CCCCC1)CC2
Method in brief: as §1

[5] = compound: c1cn2cc(-c3ccc4cn[nH]c4c3)nc(Nc3ccc(N4CCOCC4)cc3)c2n1 [entospletinib]
Method in brief: as §1

Measured: log2 fold change

NKIRAS2 (UniProt Q9NYR9)
inactive: [1] 0.102 | [2] -0.048 | [3] -0.096 | [4] 0.005 | [5] 0.041

NGRN (UniProt Q9NPE2)
inactive: [1] 0.012 | [2] 0.193 | [3] -0.05 | [4] -0.069 | [5] -0.005

NDUFA6 (UniProt P56556)
inactive: [1] -0.054 | [2] 0.042 | [3] 0.018 | [4] 0.012 | [5] -0.039

NIP7 (UniProt Q9Y221)
inactive: [1] -0.037 | [2] -0.023 | [3] 0.035 | [4] -0.045 | [5] -0.014

NDFIP1 (UniProt Q9BT67)
inactive: [1] -0.002 | [2] -0.061 | [3] -0.011 | [4] 0.08

NEK4 (UniProt P51957)
inactive: [1] -0.038

NDUFB1 (UniProt O75438)
inactive: [1] 0.022 | [2] 0.029 | [3] 0.074 | [4] 0.187

NFKBIA (UniProt P25963)
inactive: [1] -0.105 | [2] -0.225 | [3] 0.172 | [4] -0.082

Copied from the results shown (2 entries):
NEK4 (UniProt P51957)
inactive: [1] -0.038

NDUFB1 (UniProt O75438)
inactive: [1] 0.022 | [2] 0.029 | [3] 0.074 | [4] 0.187

More results follow:

NF2 (UniProt P35240)
inactive: [1] 0.022 | [2] -0.039 | [3] -0.039 | [4] 0.015 | [5] -0.093

NFIC (UniProt P08651)
inactive: [1] 0.063 | [2] -0.083 | [3] -0.026 | [4] -0.032 | [5] -0.025
